PubChem BioAssay AID652272 | Drosophila RNAi Screening Center – 2013
Purpose: 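Finding fly genes that regulate Hedgehog signal transduction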 (primary screen). System: Drosophila clone 8 (Cl8) cells. Knock-down reagent: long dsRNA against Drosophila genes. Measurement: 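Firefly light from a Hedgehog-responsive ptc promoter reporter and Renilla reference light, both read on a plate reader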. Scale: firefly Hh reporter signal: higher = more ptc reporter light; Renilla reference signal: higher = more Renilla control light. Hit rule: 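Called a hit if the two-replicate mean z-score lies below -2 or above +3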. Calls: active = hit: reporter lowered or raised; inactive = not a hit.
The deposit covers about 21,000 reagents; this is an unselected part of those that have a named target and a result. Over the whole deposit, 503 (2.4%) got an active call. 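Raw plate light values, not normalised; calls rest on replicate z-scores that were not deposited; hits include reporter decreases as well as increases.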 Names joined by + are all predicted targets of the reagent. Not stated in the record: the amount of reagent, the time to read-out.

predicted target,DRSC id,"firefly Hh reporter signal, replicate 1","firefly Hh reporter signal, replicate 2","firefly Hh reporter signal, replicate 3","Renilla reference signal, replicate 1","Renilla reference signal, replicate 2",call
CG12128 (GeneID 36042),DRSC06104,75472,77156,,3605,3645,inactive
HSPBAP1 (GeneID 43329),DRSC14567,91731,1.12e5,,2976,3424,inactive
Hsp60A (GeneID 32045),DRSC20254,1.24e5,81812,,2913,2282,inactive
CG9101 (GeneID 32452),DRSC20152,86915,1.83e5,,3290,8615,inactive
CG6333 (GeneID 39953),DRSC10626,2.03e5,,,7333,5516,inactive
Flad2 (GeneID 34759),DRSC02531,89117,50231,,2313,5075,inactive
CG17744 (GeneID 38768),DRSC10286,77376,87510,,7368,5952,inactive
CG32204 (GeneID 317913),DRSC09574,2.07e5,,,3948,,inactive
Pdcd4 (GeneID 32337),DRSC19360,1.08e5,1.48e5,,3538,6898,inactive
Klp64D (GeneID 38611),DRSC11204,82906,1.35e5,,9078,7993,inactive
CG7402 (GeneID 39994),DRSC10839,1.33e5,,,2480,6203,inactive
Oatp58Db (GeneID 37544),DRSC04364,1.28e5,43629,,3013,2519,inactive
CG30403 (GeneID 246595),DRSC03889,5.88e5,5.00e5,58439,2275,3275,inactive
CG13989 (GeneID 33869),DRSC02321,1.14e5,59649,,3051,5798,inactive
Vha26 (GeneID 40679),DRSC12371,1.17e5,51787,,4480,2112,inactive
cl (GeneID 43938),DRSC02118,1.20e5,98320,,4713,3954,inactive
CG17834 (GeneID 34191),DRSC02637,58112,81351,,2738,3496,inactive
CG18747 (GeneID 59143),DRSC15384,79664,84939,,2801,2752,inactive
CRIF (GeneID 40395),DRSC11811,78589,86108,,2728,2755,inactive
CG14857 (GeneID 41791),DRSC14981,80199,61152,,2839,1881,inactive
CG34150 (GeneID 4379863),DRSC13689,63601,2.16e5,,14935,4965,inactive
CG9702 (GeneID 43634),DRSC16540,1.12e5,1.39e5,,3557,3851,inactive
crm (GeneID 31268),DRSC18754,1.13e5,1.67e5,,1728,4678,inactive

Single entries from the list.
CG30403 (GeneID 246595) [DRSC03889], firefly Hh reporter signal, replicate 2 = 5.00e5
Pdcd4 (GeneID 32337) [DRSC19360], Renilla reference signal, replicate 1: 3538
CG14857 (GeneID 41791) [DRSC14981], Renilla reference signal, replicate 1 → 2839

More reagents follow:
predicted target,DRSC id,"firefly Hh reporter signal, replicate 1","firefly Hh reporter signal, replicate 2","firefly Hh reporter signal, replicate 3","Renilla reference signal, replicate 1","Renilla reference signal, replicate 2",call
CG10280 (GeneID 40740),DRSC12133,86699,1.30e5,,3387,4196,inactive
CG34284 (GeneID 5740234),DRSC14773,4.23e5,1.04e5,,19667,2955,inactive
CR42745 (retired record) (GeneID 10178802),DRSC13756,57478,1.93e5,,14704,3681,inactive
bif (GeneID 32119),DRSC18901,4.23e5,2.27e5,,24951,4144,inactive
bif (GeneID 32119),DRSC20313,95508,81642,,1936,1817,inactive
hd (GeneID 40642),DRSC12316,56274,1.13e5,,2196,3563,inactive
CNBP (GeneID 37646),DRSC04116,81500,40228,,2412,4293,inactive
CNBP (GeneID 37646),DRSC04419,1.51e5,7.74e5,1.29e5,6653,42624,inactive
S (GeneID 33281),DRSC00785,1.19e5,92704,,2749,2043,inactive
CG43188 (GeneID 12798403),DRSC05260,1.78e5,3.64e5,,5450,15803,inactive
CG12012 (GeneID 38422),DRSC08220,74437,52861,,2324,3916,inactive
Naprt (GeneID 33626),DRSC00630,97476,1.01e5,,4113,4340,inactive
RpS5b (GeneID 41807),DRSC16173,77912,72775,,2448,2652,inactive
mRpL1 (GeneID 40980),DRSC16251,62068,1.10e5,,2356,2515,inactive
snoRNA:Me28S-A982b + Uhg4 + snoRNA:Me28S-G3255a + 1 more,DRSC05143,1.17e5,2.73e5,,3361,11565,inactive
Itpr (GeneID 40664),DRSC12354,53801,1.02e5,,1860,2791,inactive
